Results of single-concentration screens

Chains of the proteins cited; added tags and fusions are not shown.
UniProt P9WPC5, whole entry: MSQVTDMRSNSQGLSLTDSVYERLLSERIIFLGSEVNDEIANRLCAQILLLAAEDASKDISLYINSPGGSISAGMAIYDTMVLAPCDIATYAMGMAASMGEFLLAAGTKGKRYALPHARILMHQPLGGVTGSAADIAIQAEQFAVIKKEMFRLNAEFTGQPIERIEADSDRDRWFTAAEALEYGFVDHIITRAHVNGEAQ
UniProt P9WPC3, whole entry partner: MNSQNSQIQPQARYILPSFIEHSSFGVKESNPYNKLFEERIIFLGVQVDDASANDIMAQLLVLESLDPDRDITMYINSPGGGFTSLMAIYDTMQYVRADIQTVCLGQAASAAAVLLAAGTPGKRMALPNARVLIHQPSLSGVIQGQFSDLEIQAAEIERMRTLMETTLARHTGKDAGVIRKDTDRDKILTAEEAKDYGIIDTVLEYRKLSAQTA
UniProt I6X8D2, whole entry: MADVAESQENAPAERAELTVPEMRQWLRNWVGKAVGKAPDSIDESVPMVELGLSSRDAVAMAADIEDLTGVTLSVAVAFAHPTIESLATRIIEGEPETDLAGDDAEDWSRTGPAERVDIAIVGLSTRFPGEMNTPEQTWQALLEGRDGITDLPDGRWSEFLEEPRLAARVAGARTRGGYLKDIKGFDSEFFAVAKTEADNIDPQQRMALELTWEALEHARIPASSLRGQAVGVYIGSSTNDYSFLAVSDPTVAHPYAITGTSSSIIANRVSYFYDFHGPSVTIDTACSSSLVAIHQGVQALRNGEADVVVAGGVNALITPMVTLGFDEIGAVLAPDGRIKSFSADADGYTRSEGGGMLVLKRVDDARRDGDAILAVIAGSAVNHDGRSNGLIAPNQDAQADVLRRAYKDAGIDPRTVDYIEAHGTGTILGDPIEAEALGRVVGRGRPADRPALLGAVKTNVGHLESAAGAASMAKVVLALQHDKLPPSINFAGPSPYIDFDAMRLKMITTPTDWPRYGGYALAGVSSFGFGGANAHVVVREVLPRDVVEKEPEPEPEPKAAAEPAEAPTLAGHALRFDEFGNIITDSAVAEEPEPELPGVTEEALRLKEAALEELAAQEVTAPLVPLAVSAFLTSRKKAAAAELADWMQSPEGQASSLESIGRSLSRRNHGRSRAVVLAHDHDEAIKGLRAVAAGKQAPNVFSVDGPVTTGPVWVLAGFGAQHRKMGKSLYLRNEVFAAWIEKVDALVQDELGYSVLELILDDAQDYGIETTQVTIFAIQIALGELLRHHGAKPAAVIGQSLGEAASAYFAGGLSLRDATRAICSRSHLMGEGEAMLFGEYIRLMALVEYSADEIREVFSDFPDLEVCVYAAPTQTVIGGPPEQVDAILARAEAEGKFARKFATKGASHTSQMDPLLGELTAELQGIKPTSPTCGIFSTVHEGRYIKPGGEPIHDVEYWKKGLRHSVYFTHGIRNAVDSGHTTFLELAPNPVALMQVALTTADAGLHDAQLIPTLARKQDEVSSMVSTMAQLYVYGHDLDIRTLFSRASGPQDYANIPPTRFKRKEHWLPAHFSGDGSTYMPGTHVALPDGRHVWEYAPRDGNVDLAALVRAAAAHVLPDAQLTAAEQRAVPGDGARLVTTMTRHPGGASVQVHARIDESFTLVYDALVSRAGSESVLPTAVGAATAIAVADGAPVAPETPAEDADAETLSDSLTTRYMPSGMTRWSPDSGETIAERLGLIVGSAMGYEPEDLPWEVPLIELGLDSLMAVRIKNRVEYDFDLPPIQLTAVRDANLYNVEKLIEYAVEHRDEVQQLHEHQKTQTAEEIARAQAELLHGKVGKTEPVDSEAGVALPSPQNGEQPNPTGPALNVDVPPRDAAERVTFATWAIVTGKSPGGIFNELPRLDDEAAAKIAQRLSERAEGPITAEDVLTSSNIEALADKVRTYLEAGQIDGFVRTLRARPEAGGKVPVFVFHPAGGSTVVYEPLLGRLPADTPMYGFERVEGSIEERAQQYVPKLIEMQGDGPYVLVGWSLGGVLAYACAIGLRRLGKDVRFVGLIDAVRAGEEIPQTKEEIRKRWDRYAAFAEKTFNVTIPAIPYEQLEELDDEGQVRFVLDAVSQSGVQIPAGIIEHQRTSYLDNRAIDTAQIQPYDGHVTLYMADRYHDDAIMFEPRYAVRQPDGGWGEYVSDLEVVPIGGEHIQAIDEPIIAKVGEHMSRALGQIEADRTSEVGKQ
UniProt P9WFT3, whole entry: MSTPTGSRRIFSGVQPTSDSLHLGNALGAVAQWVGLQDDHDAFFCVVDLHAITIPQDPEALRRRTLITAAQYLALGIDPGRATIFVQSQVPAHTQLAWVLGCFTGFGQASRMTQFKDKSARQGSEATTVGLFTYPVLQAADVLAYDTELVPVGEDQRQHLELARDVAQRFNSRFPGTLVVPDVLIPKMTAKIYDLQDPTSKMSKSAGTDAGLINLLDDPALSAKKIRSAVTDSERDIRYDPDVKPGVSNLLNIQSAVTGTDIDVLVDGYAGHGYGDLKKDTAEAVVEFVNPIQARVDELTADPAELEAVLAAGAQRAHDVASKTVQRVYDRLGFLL

ClpP1P2: 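ClpP1P2, Mycobacterium tuberculosis (UniProt P9WPC5 and UniProt P9WPC3). Protease assay of ClpP1P2, read by the AMC dye that it sets free. Concentration: 50 µM. Higher reads as stronger inhibition, judged from the few compounds that gave an IC50. Most other retested compounds had strongly negative values. Of about 69,000 compounds tested this way, about 10 (0.015%) reached 50% or more in at least one test.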
Pks13 thioesterase: 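Polyketide synthase Pks13, Mycobacterium tuberculosis (UniProt I6X8D2). Enzyme assay of the thioesterase domain of polyketide synthase 13; the read-out is not stated. Compounds at 30 µM. Higher reads as stronger inhibition (inferred from which compounds were picked for retests). Size under these conditions: about 67,000 compounds, about 300 of them at 50% or above in at least one test.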
MtTrpRS: 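Enzyme assay of tryptophanyl-tRNA synthetase; the read-out is not stated. Target: Tryptophan-tRNA ligase, Mycobacterium tuberculosis (UniProt P9WFT3). Concentration: 10 µM. Higher most likely means stronger inhibition; the record gives no direction and few retests gave an IC50. About 65,000 compounds were tested under these conditions; 0.098% (about 64) showed 50% or more at least once.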

Each number is a percent effect as filed.
The record does not define 0% and 100%; most values in the screen are far below 50% and negative numbers occur (in some assays of this library far below -100).
This is an unselected part of the compounds tested.

CSCC[C@@H](CO)n1ccnc1-c1ccncc1 gave ClpP1P2: 8.847%; Pks13 thioesterase: 6.036%; MtTrpRS: 5.302%.
CN(CCO)Cc1nnc(C2CCN(C3CCCCC3)CC2)n1C gave ClpP1P2: 4.021%; Pks13 thioesterase: -11.15%; MtTrpRS: -2.487%.
CN1CCC(NC(=O)c2cc(C3CCCCC3)nc3ccccc23)CC1 gave ClpP1P2: -9.603%; Pks13 thioesterase: 10.36%.
CN(C)CCCNC(=O)c1nc(Cc2c(Cl)cccc2Cl)no1 gave ClpP1P2: 22.41%; Pks13 thioesterase: -15.77%; MtTrpRS: 3.695%.
CC(C)CN1C[C@@H]2OCC(=O)N(c3ccccc3)[C@@H]2C1 gave ClpP1P2: -0.7256%; Pks13 thioesterase: -27.19%; MtTrpRS: 0.07628%.
COc1cc(C2(C(=O)NCCn3ccnc3)CCCC2)ccc1C gave ClpP1P2: -3.484%; Pks13 thioesterase: -19.54%; MtTrpRS: 0.5187%.
CCCc1cc(CNC(=O)C2CCOc3ccccc3C2)on1 (centres undefined) gave ClpP1P2: 5.106%; Pks13 thioesterase: 24.25%; MtTrpRS: 3.425%.
NC(=O)Cn1ccnc1C1CCCN(Cc2cccc(Cl)c2F)C1 (centres undefined) gave ClpP1P2: -3.77%; MtTrpRS: 0.07468%.
CCCC(=O)N1CCN(CC(O)COCC)CC1 (centres undefined) gave ClpP1P2: -27.97%; Pks13 thioesterase: -8.875%; MtTrpRS: -3.39%.
O=S(=O)(Cc1nc(C2CC2)no1)c1ccccc1F gave ClpP1P2: 0.635%; Pks13 thioesterase: 3.686%; MtTrpRS: 0.08211%.
Cc1ccc(C)c(CNC(=O)NC(C)(C(=O)O)c2ccco2)c1 (centres undefined) gave ClpP1P2: 1.979%; Pks13 thioesterase: -9.489%; MtTrpRS: 0.8772%.
Cc1cc(-c2cnc(N3CCC(C(N)=O)CC3)nc2C(C)C)on1 gave ClpP1P2: -6.137%; Pks13 thioesterase: 1.854%; MtTrpRS: -6.332%.
O=C(CCn1nc(C(F)(F)F)c(Br)c1C1CC1)NN1CCOCC1 gave ClpP1P2: -23.51%; Pks13 thioesterase: 40.25%; MtTrpRS: -3.797%.
Cc1csc2ncc(-c3ccnc(N4CCC[C@H](C(N)=O)C4)n3)c(=O)n12 gave ClpP1P2: 7.744%; Pks13 thioesterase: 5.108%.
O=C(c1ccoc1)N1CCC2(CC1)C(=O)N(CC1CC1)c1ccccc12 gave ClpP1P2: -1.598%; Pks13 thioesterase: -30.69%; MtTrpRS: -4.215%.
COCCN1C[C@H]2[C@@H](C1)N(Cc1cnn(C)c1)CC[C@H]2OC gave ClpP1P2: -6.354%; Pks13 thioesterase: 10.65%; MtTrpRS: 1.521%.
CCN(CC)[C@H]1C[C@@H](Cc2cc(CO)on2)C1(C)C gave ClpP1P2: -1.129%; MtTrpRS: -4.958%.
Cc1ccsc1CN1CCc2nc3ccsc3c(=O)n2CC1 gave ClpP1P2: -8.152%; Pks13 thioesterase: -1.585%.
CO[C@H]1C[C@@H]2CN(C(=O)c3n[nH]c4c3CCCC4)C[C@@H]2C1 gave ClpP1P2: 4.454%; Pks13 thioesterase: -1.049%; MtTrpRS: 15.86%.
CC(C(=O)Nc1cccc(N2CCCCC2)c1)n1cncn1 (centres undefined) gave ClpP1P2: -1.843%; Pks13 thioesterase: -4.779%; MtTrpRS: -2.113%.
Cc1nc(C)c(C(=O)NCCNC(=O)Cc2ccccc2)s1 gave ClpP1P2: 8.71%; Pks13 thioesterase: -4.448%; MtTrpRS: 2.235%.
O=C(Cn1ccc2sccc2c1=O)NCCC1=CCCCC1 gave ClpP1P2: -6.565%; Pks13 thioesterase: -4.524%; MtTrpRS: 4.355%.
CCC(C)N(Cc1ccncc1)Cc1ccc(-n2cccn2)cc1 (centres undefined) gave ClpP1P2: -5.992%; Pks13 thioesterase: -27.56%; MtTrpRS: -5.925%.
c1ccc(-c2cc(NCCCC3CCOC3)n3nccc3n2)cc1 (centres undefined) gave ClpP1P2: -28.83%; Pks13 thioesterase: -32.81%; MtTrpRS: -4.728%.
CC(=O)c1cccc(NC(=O)COc2c(C)n(C)ccc2=O)c1 gave ClpP1P2: 5.151%; Pks13 thioesterase: -27.98%; MtTrpRS: -3.618%.
O=C(c1cn(CC(=O)N2CCc3[nH]cnc3C2)c2ccccc12)C1CC1 gave ClpP1P2: -0.1365%; Pks13 thioesterase: -18.94%; MtTrpRS: 3.694%.
COCCCN1Cc2cccc(NC(=O)c3cc(F)ccc3F)c2C1 gave ClpP1P2: 5.255%; Pks13 thioesterase: -6.959%; MtTrpRS: 5.286%.
Cc1cc(C)n(-c2ccc(N3CCCSCC3)nc2)n1 gave ClpP1P2: -5.206%; Pks13 thioesterase: -10.14%; MtTrpRS: -5.005%.
Cc1cc(C)n(C2CN(CCc3ccccn3)C2)n1 gave ClpP1P2: 1.633%; Pks13 thioesterase: 17%; MtTrpRS: -0.1485%.
CC(C)n1nc2c(cc1=O)CN(CC1CCCCO1)CC2 (centres undefined) gave ClpP1P2: -6.07%; Pks13 thioesterase: -10.34%; MtTrpRS: 2.961%.
CC(=O)c1cc(CN2C[C@H]3CC[C@@H]2CN(Cc2c(C)noc2C)C3)cs1 gave ClpP1P2: 2.518%; Pks13 thioesterase: -12.03%; MtTrpRS: -1.636%.
CN(Cc1ccc2c(c1)OCO2)C(=O)c1ccc(C2CCCNC2)cc1 (centres undefined) gave ClpP1P2: -10.72%; Pks13 thioesterase: -16.03%; MtTrpRS: 2.899%.
O=C(c1ccco1)N1CCc2c(COCC3CC3)cncc2C1 gave ClpP1P2: -1.023%; MtTrpRS: 1.07%.
C=C(C)CN(CC)C(=O)c1cc(Cl)ccc1NS(C)(=O)=O gave ClpP1P2: -9.603%; Pks13 thioesterase: 34.59%; MtTrpRS: -0.2694%.
CN(C)CCn1nc(C2CCN(Cc3ccccc3)C2)c2cccnc21 (centres undefined) gave ClpP1P2: -18.89%; Pks13 thioesterase: -6.118%; MtTrpRS: 4.525%.
CCCc1nc(CN2CCOC(Cn3cccn3)C2)no1 (centres undefined) gave ClpP1P2: -20.65%; Pks13 thioesterase: -2.326%; MtTrpRS: -8.047%.
O=C(NCC1CCCOC1)c1ccc(-c2cccs2)[nH]c1=O (centres undefined) gave ClpP1P2: -84.82%; Pks13 thioesterase: 18.5%; MtTrpRS: 0.7958%.

Data taken from ChEMBL document CHEMBL3988442, “University of Dundee, Small-Polar-MMV Screening Library” (2021).